Experimental data from PubChem BioAssay AID504842 (National Center for Advancing Translational Sciences (NCATS), 2011).
Out of some 330,000 compounds screened, about 100 (0.03%) were called active. The shares of active, inactive and inconclusive entries below differ from those in the screen. The call rests on the fitted dose curve; in most records, active means well fitted inhibition curve with a large enough effect; inconclusive means small, poorly fitted or top-dose-only effect; inactive means flat fitted curve, though single readings scatter. A potency beside an inconclusive call is a rough fit, not a confirmed value.

Tested on: Chaperonin Mm-Cpn (Methanococcus maripaludis)
Test: Inhibitors of TCP-1 ring complex (TRiC) of Methanococcus maripaludis (MmCpn): qHTS; further: nearly all actives have a fitted effect of over 80% in size;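 on potency: enzyme at 25 nM with ATP substrate at 10 µM during the reaction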
Settings: purified Mm-Cpn ATPase, ADP Transcreener TR-FRET
Method in brief: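 Compound-treated chaperonin, 25 nM final, turns over 10 uM ATP at 37°C for 30 min following a 10 min preincubation; ADP generated competes with ADP-d2 for Eu-cryptate antibody, lowering FRET.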
Potency means the concentration at half of the fitted maximal effect.

With `O=C(/C=C/c1cccc(Br)c1)c1ccc2c(c1)OCO2` as the compound, how does the Potency read?
Its Potency is inconclusive: 70.8 µM [inhibitor, single point].

Which Potency does the source give for `O=C(NCc1cccc(C(F)(F)F)c1)N1CCN(S(=O)(=O)c2ccccc2F)CC1` here?
The Potency was “inactive”.

Which Potency does the source give for `CCOC(=O)c1ccc(-c2c(-c3ccccc3OC)sc3ccc(OC)cc23)cc1F` here?
The Potency was inconclusive: 2 µM [inhibitor, partial curve, poor fit].

For `CCc1ccc(NC(=O)CSc2nc3ccccc3c(=O)n2CCN2CCOCC2)cc1`, which Potency is on record?
Its Potency is inconclusive: 12.6 µM [inhibitor, single point].

How did the Potency turn out when `O=C(O)c1ccc(CNCc2ccccc2F)cc1` was run?
Its Potency is inconclusive: 251 µM [inhibitor, partial curve, poor fit].

How did the Potency turn out when `COCC(=O)Nc1ccc(OC)c(Cl)c1` was run?
The Potency was “inactive”.

How did the Potency turn out when `CC(=O)c1c(C)[nH]c(C(=O)OCC(=O)Nc2ccc(C)cc2[N+](=O)[O-])c1C` was run?
Its Potency is “inactive”.

With `Cc1ccc(/C=C/C(=O)Nc2sc3c(c2C#N)CCCC3)o1` as the compound, how does the Potency read?
The Potency was “inactive”.

With `COc1ccc(CC2S/C(=C(\C#N)C(=O)NCc3ccco3)N(c3ccc(C)cc3)C2=O)cc1` (stereo not drawn) as the compound, how does the Potency read?
The Potency was inconclusive: 100 µM [inhibitor, single point].

`Cc1cnc(C(=O)N2CCCC(N3CCN(c4ccccc4C)CC3)C2)cn1` (stereo not drawn) was tested. Which Potency did it give?
The Potency was inconclusive: 17.8 µM [inhibitor, single point].

Which Potency does the source give for `Cc1ccc(NC(=O)c2cc(-c3cc(Cl)ccc3O)n[nH]2)cc1C` here?
The Potency was inconclusive: 20 µM [inhibitor, single point].

`O=C(NC1CCCCC1)N1CCN(c2ccc(Cl)cc2)CC1` was tested. Which Potency did it give?
Its Potency is inconclusive: 22.4 µM [inhibitor, single point].

Which Potency does the source give for `COc1ccc(NC(=O)c2ccc3nccnc3c2)cc1` here?
Its Potency is “inactive”.

`COC(=O)c1sccc1NC(=O)C1CC=CCC1C(=O)O` (stereo not drawn) was tested. Which Potency did it give?
The Potency was “inactive”.

With `Cc1nc(SCc2nc3ccccc3[nH]2)c2oc3cc(Br)ccc3c2n1` as the compound, how does the Potency read?
The Potency was inconclusive: 100 µM [inhibitor, single point].

For `O=C(Nc1nc(-c2cccs2)cs1)C1=COCCO1`, which Potency is on record?
Its Potency is “inactive”.

For `OC(COc1ccc2ccccc2c1Cl)CN1CCOCC1` (stereo not drawn), which Potency is on record?
The Potency was inconclusive: 5.62 µM [inhibitor, single point].

Which Potency does the source give for `CCc1ccc(C(C)NC(=O)Cn2cnc3c(=O)n(C)c(=O)n(C)c32)cc1` (stereo not drawn) here?
Its Potency is inconclusive: 100 µM [inhibitor, partial curve, poor fit].

How did the Potency turn out when `CN1CCN(c2ccc(Cl)cc2NC(=O)c2ccc(S(=O)(=O)N(C)C)cc2)CC1` was run?
The Potency was “inactive”.

`c1ccc(-c2n[nH]c(-c3ccccn3)n2)cc1` was tested. Which Potency did it give?
The Potency was “inactive”.

With `N/C(=N\OC(=O)c1ccccc1)c1ccn[nH]1` as the compound, how does the Potency read?
Its Potency is inconclusive: 7.94 µM [inhibitor, single point].

For `CCOC(=O)c1c(NC(=S)Nc2cccc(C)c2)sc2c1CC(C)(C)SC2`, which Potency is on record?
Its Potency is inconclusive: 112 µM [inhibitor, partial curve, poor fit].

How did the Potency turn out when `Cc1ccc(NC(=O)c2cccs2)cc1` was run?
Its Potency is “inactive”.

`CCOc1ccc(NC(=O)CN2CCCC2c2cccs2)cc1S(=O)(=O)N1CCCC1` (stereo not drawn) was tested. Which Potency did it give?
Its Potency is “inactive”.

For `CN(Cc1cccc(Cl)c1)C(=O)C1CCC(=O)N(C2CC2)C1` (stereo not drawn), which Potency is on record?
The Potency was “inactive”.

With `Cn1nnnc1Sc1ncnc2scc(-c3cc4ccccc4o3)c12` as the compound, how does the Potency read?
The Potency was active: 39.8 µM.

With `CCc1ccc(OCC(=O)NC(=S)Nc2ccc(S(=O)(=O)NC3CCCCC3)cc2)cc1` as the compound, how does the Potency read?
The Potency was inconclusive: 22.4 µM [inhibitor, single point].

How did the Potency turn out when `Cc1n[nH]c(=O)c2c(NC(=O)CSc3c(Cl)cccc3Cl)oc(C)c12` was run?
Its Potency is inconclusive: 100 µM [inhibitor, single point].

With `CCCn1c2c(c(O)c(C(=O)NC)c1=O)CCCC2` as the compound, how does the Potency read?
Its Potency is inconclusive: 70.8 µM [inhibitor, single point].

For `Cc1ccc(-c2nnc(NCc3nc4ccccc4[nH]3)c3ccccc23)cc1S(=O)(=O)N1CCCCC1`, which Potency is on record?
The Potency was inconclusive: 100 µM [inhibitor, single point].

With `Cc1ccc(-c2cn3c(=S)[nH]nc3s2)cc1` as the compound, how does the Potency read?
Its Potency is “inactive”.

`COc1ccc2cc(C(c3nnnn3CC3CCCO3)N3CCOCC3)c(=O)[nH]c2c1` (stereo not drawn) was tested. Which Potency did it give?
Its Potency is “inactive”.

`Cc1ccccc1-n1nnnc1SC1CCOC1=O` (stereo not drawn) was tested. Which Potency did it give?
The Potency was “inactive”.

With `CCOc1ccccc1NC(=O)CSC1=C(C#N)C(c2ccco2)C(C(=O)Nc2nc3ccccc3s2)=C(C)N1` (stereo not drawn) as the compound, how does the Potency read?
Its Potency is inconclusive: 79.4 µM [inhibitor, partial curve].

With `N/C(=N\OC(=O)CCC1CCCCC1)c1ccc([N+](=O)[O-])cc1` as the compound, how does the Potency read?
The Potency was “inactive”.

With `Cc1ccc(S(=O)(=O)N2CCN(CC(=O)Nc3ccc(N4CCOCC4)cc3)CC2)cc1C` as the compound, how does the Potency read?
Its Potency is “inactive”.

With `O=C(NCc1n[nH]c(=S)n1-c1ccc(F)cc1)c1ccc(S(=O)(=O)N2CCCCC2)cc1` as the compound, how does the Potency read?
Its Potency is inconclusive: 89.1 µM [inhibitor, single point].

For `COC(=O)c1c(-c2ccccc2OC)sc2ccccc12`, which Potency is on record?
Its Potency is active: 35.5 µM.

`CCOC(=O)NC(=O)/C(C#N)=N\Nc1cccc(Cl)c1` was tested. Which Potency did it give?
The Potency was “inactive”.

Which Potency does the source give for `Cc1ccc(/C=C/C(=O)O)cc1S(=O)(=O)NCCO` here?
Its Potency is inconclusive: 56.2 µM [inhibitor, single point].

With `O=C(CNS(=O)(=O)c1cccc(Cl)c1)Nc1ccc(-c2nc3ccccc3s2)cc1` as the compound, how does the Potency read?
Its Potency is “inactive”.

Which Potency does the source give for `Clc1ccc(-c2nnc(-c3ccco3)nc2N2CCCCC2)cc1` here?
The Potency was inconclusive: 100 µM [inhibitor, single point].

For `Cc1ccc(-c2ccc(/C=N/NC(=O)CN3CCCC3)o2)cc1Cl`, which Potency is on record?
Its Potency is “inactive”.

Which Potency does the source give for `CC1CCc2onc(C(=O)NCc3ccco3)c2C1` (stereo not drawn) here?
The Potency was “inactive”.

Which Potency does the source give for `COc1ccc(S(=O)(=O)N(C)CC(=O)NCc2ccc3c(c2)OCO3)cc1` here?
Its Potency is inconclusive: 14.1 µM [inhibitor, single point].

Which Potency does the source give for `CCOC(=O)C1(Cc2cccc(OC)c2)CCCN(C(=O)CNC(C)=O)C1` (stereo not drawn) here?
The Potency was inconclusive: 63.1 µM [inhibitor, single point].

How did the Potency turn out when `COC(=O)c1sccc1NC(=O)Nc1ccc(Cl)c(Cl)c1` was run?
Its Potency is inconclusive: 79.4 µM [inhibitor, partial curve].

For `Cc1ccc(-c2cc(C(=O)NC3=NCCS3)c3cc(Br)ccc3n2)o1`, which Potency is on record?
The Potency was inconclusive: 100 µM [inhibitor, partial curve].

`Cc1nn(CCCC(=O)O)c(C)c1[N+](=O)[O-]` was tested. Which Potency did it give?
The Potency was “inactive”.

`O=C(CCC(=O)c1ccc(F)cc1)Nc1cccc(Br)c1` was tested. Which Potency did it give?
Its Potency is inconclusive: 11.2 µM [inhibitor, partial curve, poor fit].

Which Potency does the source give for `Cc1ccc(C(=O)NCC(=O)OCC(=O)Nc2ccc(Cl)cc2C(F)(F)F)cc1C` here?
Its Potency is inconclusive: 11.2 µM [inhibitor, single point].

With `COC(=O)COc1ccc(/C=N/NS(=O)(=O)c2ccccc2)cc1` as the compound, how does the Potency read?
Its Potency is inconclusive: 63.1 µM [inhibitor, single point].

Which Potency does the source give for `COc1ccc(OCc2cc(C(=O)N(C)Cc3cc(C4CC4)n[nH]3)no2)c(Cl)c1` here?
Its Potency is “inactive”.

With `CCN(CC)S(=O)(=O)c1ccc(Cl)c(C(=O)OCC(=O)c2c(N)n(C)c(=O)n(C)c2=O)c1` as the compound, how does the Potency read?
Its Potency is inconclusive: 15.8 µM [inhibitor, partial curve, poor fit].

`O=C(CCCC(=O)N(CC(=O)NC1CCCC1)c1ccc(F)c(Cl)c1)Nc1ccccn1` was tested. Which Potency did it give?
The Potency was inconclusive: 100 µM [inhibitor, single point].

With `O=C(O)C1CC(=O)N(Cc2ccc3c(c2)OCO3)C1` (stereo not drawn) as the compound, how does the Potency read?
Its Potency is “inactive”.

How did the Potency turn out when `COc1ccc(C2CC(c3cccs3)=NN2C(=S)Nc2ccccc2)cc1OC` (stereo not drawn) was run?
Its Potency is inconclusive: 89.1 µM [inhibitor, single point].

Which Potency does the source give for `CC(C)Oc1cccc(C(=O)NC(=S)Nc2cccc(NC(=O)c3ccccc3Cl)c2)c1` here?
The Potency was “inactive”.

Which Potency does the source give for `COc1cccc(C(=O)CC(C#N)c2ccc(F)cc2)c1` (stereo not drawn) here?
Its Potency is inconclusive: 12.6 µM [inhibitor, single point].

`CCC(C(=O)NC1CCCC1)N(Cc1ccccc1Cl)C(=O)c1snc(C(N)=O)c1N` (stereo not drawn) was tested. Which Potency did it give?
The Potency was inconclusive: 10 µM [inhibitor, single point].

Which Potency does the source give for `COc1cccc(-c2c(C(=O)N/N=C/c3ccoc3)nnn2-c2nonc2N)c1` here?
The Potency was inconclusive: 89.1 µM [inhibitor, single point].

For `CCOc1ccc(C(=O)COC(=O)c2nn(CC)c(=O)c3ccccc23)cc1`, which Potency is on record?
The Potency was inconclusive: 14.1 µM [inhibitor, single point].

Which Potency does the source give for `COC(=O)c1cc(C(=O)OC)n(Cc2ccc(C)cc2)c1C` here?
The Potency was “inactive”.

`O=C(N/N=C/c1ccsc1)c1cc(-c2cccs2)nc2ccccc12` was tested. Which Potency did it give?
The Potency was inconclusive: 100 µM [inhibitor, single point].

With `CCOc1ccc(S(=O)(=O)N(C)c2ccc(OCC(=O)Nc3nc(-c4cc(OC)ccc4OC)cs3)cc2)cc1` as the compound, how does the Potency read?
The Potency was inconclusive: 126 µM [inhibitor, partial curve].

Which Potency does the source give for `OC(COc1cccc2ccccc12)CN1CCN(c2ccccc2Cl)CC1` (stereo not drawn) here?
The Potency was “inactive”.

Which Potency does the source give for `Cc1ccccc1C(=O)N1CCC(C(=O)Nc2nc3ccc(F)cc3s2)CC1` here?
The Potency was “inactive”.

Which Potency does the source give for `CCc1cc(=O)[nH]c(-n2[nH]c(-c3ccccc3)cc2=O)n1` here?
The Potency was “inactive”.

`COc1cccc(NC(=O)N2CCC(NC(=O)C(Cc3ccccc3OC)NC(C)=O)CC2)c1` (stereo not drawn) was tested. Which Potency did it give?
Its Potency is inconclusive: 70.8 µM [inhibitor, single point].

Which Potency does the source give for `O=C(CCc1ccc(S(=O)(=O)NCCc2ccccc2)cc1)NCc1ccc2c(c1)OCO2` here?
Its Potency is inconclusive: 251 µM [inhibitor, partial curve, poor fit].

With `COc1ccc(/C=C(\NC(=O)c2ccc(OC)cc2)C(=O)Nc2ccc(C(=O)O)cc2)cc1` as the compound, how does the Potency read?
Its Potency is “inactive”.

For `COc1ccccc1-c1sc2cc3c(cc2c1C#Cc1cncn1C)OCO3`, which Potency is on record?
Its Potency is inconclusive: 141 µM [inhibitor, partial curve].

Which Potency does the source give for `Cc1ccc2[nH]c(=O)c(C(c3nnnn3Cc3ccccc3)N3CCc4ccccc43)cc2c1` (stereo not drawn) here?
Its Potency is inconclusive: 100 µM [inhibitor, single point].
